Results are given in words; binding and its absence hold for the method and conditions named. Binding seen in cells or lysates may run through a third protein. These calls come from enrichment with a bait or labelling near it, and not all partners need be listed.

Chains of the proteins cited; added tags and fusions are not shown.
UniProt Q9UKV0: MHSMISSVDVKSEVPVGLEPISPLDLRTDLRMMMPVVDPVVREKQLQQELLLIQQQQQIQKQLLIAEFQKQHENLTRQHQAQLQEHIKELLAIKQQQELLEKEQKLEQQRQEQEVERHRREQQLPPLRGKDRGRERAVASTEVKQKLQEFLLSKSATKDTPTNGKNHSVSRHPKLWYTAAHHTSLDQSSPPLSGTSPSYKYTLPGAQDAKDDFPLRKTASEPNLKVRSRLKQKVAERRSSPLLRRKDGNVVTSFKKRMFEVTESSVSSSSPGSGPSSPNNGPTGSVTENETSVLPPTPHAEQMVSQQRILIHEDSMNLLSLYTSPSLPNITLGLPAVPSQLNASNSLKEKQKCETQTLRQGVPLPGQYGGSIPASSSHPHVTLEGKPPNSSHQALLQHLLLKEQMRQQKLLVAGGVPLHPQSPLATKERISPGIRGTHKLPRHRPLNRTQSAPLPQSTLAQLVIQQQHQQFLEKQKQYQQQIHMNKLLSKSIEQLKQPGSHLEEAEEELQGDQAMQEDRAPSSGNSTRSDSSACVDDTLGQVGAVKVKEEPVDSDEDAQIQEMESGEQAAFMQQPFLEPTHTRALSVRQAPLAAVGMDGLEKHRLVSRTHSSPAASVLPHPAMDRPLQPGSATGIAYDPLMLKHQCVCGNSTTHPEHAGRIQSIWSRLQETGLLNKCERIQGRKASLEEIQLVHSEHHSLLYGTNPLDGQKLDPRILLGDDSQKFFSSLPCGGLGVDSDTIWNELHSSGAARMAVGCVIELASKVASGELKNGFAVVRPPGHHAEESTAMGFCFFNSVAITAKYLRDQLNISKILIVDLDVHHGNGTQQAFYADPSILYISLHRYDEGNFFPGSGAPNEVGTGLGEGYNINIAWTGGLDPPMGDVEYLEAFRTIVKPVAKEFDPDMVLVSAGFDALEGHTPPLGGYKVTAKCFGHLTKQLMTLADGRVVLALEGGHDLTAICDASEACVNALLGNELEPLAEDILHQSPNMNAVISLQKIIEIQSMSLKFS
UniProt P42224: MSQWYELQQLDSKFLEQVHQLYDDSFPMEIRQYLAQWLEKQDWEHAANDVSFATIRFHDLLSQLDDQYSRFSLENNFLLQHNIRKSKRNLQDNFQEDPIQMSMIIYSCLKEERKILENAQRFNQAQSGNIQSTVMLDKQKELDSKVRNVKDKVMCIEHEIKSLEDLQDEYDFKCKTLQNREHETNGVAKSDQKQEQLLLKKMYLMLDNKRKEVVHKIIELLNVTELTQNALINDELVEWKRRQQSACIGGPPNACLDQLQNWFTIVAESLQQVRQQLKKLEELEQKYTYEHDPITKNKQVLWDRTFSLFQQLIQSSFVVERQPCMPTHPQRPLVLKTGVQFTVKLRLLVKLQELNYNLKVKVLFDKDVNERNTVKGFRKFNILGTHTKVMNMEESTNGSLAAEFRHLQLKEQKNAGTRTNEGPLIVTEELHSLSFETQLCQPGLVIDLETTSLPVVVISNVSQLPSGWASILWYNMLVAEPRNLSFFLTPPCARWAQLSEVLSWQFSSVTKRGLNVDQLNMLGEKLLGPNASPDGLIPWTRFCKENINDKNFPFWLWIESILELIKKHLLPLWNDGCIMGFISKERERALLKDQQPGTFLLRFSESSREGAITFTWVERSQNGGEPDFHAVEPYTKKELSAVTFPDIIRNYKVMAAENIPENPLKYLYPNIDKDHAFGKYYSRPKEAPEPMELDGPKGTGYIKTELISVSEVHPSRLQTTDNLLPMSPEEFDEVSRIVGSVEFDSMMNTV

The target in the assay is T1, lysophosphatidylcholine acyltransferase 2 (human (endogenous in BEAS-2B)) (UniProt Q7L5N7).
T1 sequence: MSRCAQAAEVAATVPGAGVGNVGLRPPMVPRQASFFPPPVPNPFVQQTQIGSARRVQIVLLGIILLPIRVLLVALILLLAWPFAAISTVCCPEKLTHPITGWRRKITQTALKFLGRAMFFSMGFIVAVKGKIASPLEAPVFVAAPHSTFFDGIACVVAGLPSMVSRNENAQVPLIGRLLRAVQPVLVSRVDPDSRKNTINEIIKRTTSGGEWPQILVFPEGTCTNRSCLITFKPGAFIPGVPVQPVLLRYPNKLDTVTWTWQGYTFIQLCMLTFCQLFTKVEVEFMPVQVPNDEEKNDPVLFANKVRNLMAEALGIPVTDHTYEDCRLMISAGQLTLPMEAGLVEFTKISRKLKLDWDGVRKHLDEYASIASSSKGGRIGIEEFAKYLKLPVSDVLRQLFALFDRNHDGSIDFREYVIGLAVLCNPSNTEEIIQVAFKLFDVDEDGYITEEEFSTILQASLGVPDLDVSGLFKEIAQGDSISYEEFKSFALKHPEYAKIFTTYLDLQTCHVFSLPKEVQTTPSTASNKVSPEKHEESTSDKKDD
The assay is described as follows: affinity purification with mass spectrometry; IP-MS/MS: co-IP from BEAS-2B cells with anti-LPCAT2 antibody or IgG as negative control; captured proteins separated by SDS-PAGE, excised from the gel and analysed by mass spectrometry.

Take “histone deacetylase 9 (from UniProt Q9UKV0 1-1011) (enzyme)”: the binding entry is given as “binds”.

As to “transcription activator 1 (STAT1) (from UniProt P42224 1-750)”, the binding result is given as “binds”.

These data come from article PMC13035903.
